These are yes or no findings as the source states them, for the method shown. In cells and extracts the contact can be indirect. Some results given as binding are weak or reduced against the parent protein; the word gives no strength.
Target: SRSF1 (mouse (endogenous in early four-cell embryos)) (UniProt Q6PDM2)
Assay: co-IP; early four-cell mouse embryos; the text does not tell which protein was precipitated and which was blotted

The chains behind the UniProt entries cited, without tags or fusion partners.
UniProt Q6PDM2: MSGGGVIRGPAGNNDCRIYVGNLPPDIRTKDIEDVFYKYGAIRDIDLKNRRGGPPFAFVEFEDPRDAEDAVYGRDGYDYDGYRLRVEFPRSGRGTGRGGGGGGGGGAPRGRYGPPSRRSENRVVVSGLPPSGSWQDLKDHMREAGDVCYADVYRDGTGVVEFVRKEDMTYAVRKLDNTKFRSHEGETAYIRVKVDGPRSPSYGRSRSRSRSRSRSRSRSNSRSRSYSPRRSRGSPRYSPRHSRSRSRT
UniProt P60335: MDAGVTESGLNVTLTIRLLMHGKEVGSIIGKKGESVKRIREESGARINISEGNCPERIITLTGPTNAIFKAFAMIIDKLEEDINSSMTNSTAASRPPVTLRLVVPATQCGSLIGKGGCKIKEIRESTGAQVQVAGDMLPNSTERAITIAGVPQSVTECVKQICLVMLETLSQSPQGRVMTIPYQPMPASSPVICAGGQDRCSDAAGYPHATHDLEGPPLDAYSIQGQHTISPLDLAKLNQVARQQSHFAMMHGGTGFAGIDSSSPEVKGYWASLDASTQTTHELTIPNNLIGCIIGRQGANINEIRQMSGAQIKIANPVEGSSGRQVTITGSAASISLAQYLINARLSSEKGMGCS

For PCBP1 (from UniProt P60335 1-356), the binding was “binds”.

— paper PMC11402786
